The list does not hold the whole screen: it is rich in T/C values a quarter to a half above the control, in often repeated tests (any T/C) and in doses without a T/C. Other doses and runs of a compound stand elsewhere. T/C is the treated group as % of the vehicle group. Some entries give survivors of the animals treated and no T/C: the source holds a T/C of zero for them, seemingly a mark for toxic or unscored doses. Some doses without a T/C left all or most animals alive at the check, yet need not have been tolerated: the source hardly ever lists a survival T/C far under the control, and the zero likely stands for such cases as well. Survivors were counted at the toxicity check, usually on the fifth day, unless a day is given; later deaths do not show. Schedule codes are those of the source, taken here to give the interval after Q, in days (D) or hours (H), and the number of doses after X. For survival time, this PubChem deposit counts one and a half times the control or more as active, and values a quarter to a half above the control carry no call in these data; other NCI protocols may use other cut-offs. Brackets with × say how often a value occurs here. Some T/C values are followed by the survivors on the day toxicity was checked, most often the fifth; without a count, all were alive then.
Test system: BDF1 mice, P388 leukemia ip, median survival T/C
Experiment: NCI In Vivo Anticancer Drug Screen. Data for tumor model P388 Leukemia (intraperitoneal) in B6D2F1 (BDF1) mice
Settings: T/C endpoint: median survival time, higher T/C = longer survival
Description: The antitumor activity of compounds was measured in mice bearing transplantable tumors. Survival or tumor size were measured and the results are expressed as the measurement made in the treated group (T) divided by the measurement made in the vehicle treated control group (C). The tumor model used in this assay is P388 Leukemia (intraperitoneal) in B6D2F1 (BDF1) mice

[1] = dose: 25.0 mg/kg/injection, schedule: Q01DX009 (ip), vehicle: saline with Tween-80
[2] = dose: 100.0 mg/kg/injection, schedule: Q01DX009 (ip), vehicle: saline with Tween-80
[3] = dose: 100.0 mg/kg/injection, schedule: Q04DX003 (ip), vehicle: saline with Tween-80
[4] = dose: 200.0 mg/kg/injection, schedule: Q04DX003 (ip), vehicle: saline with Tween-80
[5] = dose: 200.0 mg/kg/injection, schedule: Q01DX009 (ip), vehicle: saline with Tween-80
[6] = dose: 400.0 mg/kg/injection, schedule: Q04DX003 (ip), vehicle: saline with Tween-80

**Q.** CNC(=S)N/N=C(/C)CCc1c(C)nn(C(=S)NC)c1C was tested. Which survivor count (dose: 83.75 mg/kg/injection, schedule: Q01DX009 (ip), vehicle: Klucel (hydroxypropylcellulose) (HPC)) did it give?
**A.** 6 of 6

**Q.** What about the survivor count (dose: 167.5 mg/kg/injection, schedule: Q01DX009 (ip), vehicle: Klucel (hydroxypropylcellulose) (HPC)) of the same molecule?
**A.** 0 of 6

**Q.** And the survivor count (dose: 335.0 mg/kg/injection, schedule: Q01DX009 (ip), vehicle: Klucel (hydroxypropylcellulose) (HPC))?
**A.** 0 of 6

**Q.** How did the T/C (dose: 12.5 mg/kg/injection, schedule: Q01DX009 (ip), vehicle: Klucel (hydroxypropylcellulose) (HPC)) turn out when CSc1ncnc2c1ncn2C1OC(CO)C(O)OC1O (stereo not given) was run?
**A.** 125 % of control

**Q.** And the T/C (dose: 25.0 mg/kg/injection, schedule: Q01DX009 (ip), vehicle: Klucel (hydroxypropylcellulose) (HPC))?
**A.** 130 % of control

**Q.** And the T/C [1]?
**A.** 140 % of control

**Q.** And the T/C (dose: 50.0 mg/kg/injection, schedule: Q01DX009 (ip), vehicle: Klucel (hydroxypropylcellulose) (HPC))?
**A.** 145 % of control [5 of 6 alive]

**Q.** And the T/C (dose: 50.0 mg/kg/injection, schedule: Q01DX009 (ip), vehicle: saline with Tween-80)?
**A.** 136 % of control

**Q.** And the survivor count (dose: 100.0 mg/kg/injection, schedule: Q01DX009 (ip), vehicle: Klucel (hydroxypropylcellulose) (HPC))?
**A.** 1 of 6

**Q.** And the survivor count [2]?
**A.** 5 of 6

**Q.** With O=C1C=CC(=O)N1Cc1ccco1 as the molecule, how does the survivor count (dose: 200.0 mg/kg/injection, schedule: Q01DX009 (ip), vehicle: saline) read?
**A.** 6 of 6

**Q.** Which survivor count (dose: 100.0 mg/kg/injection, schedule: Q04DX002 (ip), vehicle: saline with Tween-80) does the source give for CN(C)C1C(=O)C(C(=O)NCN2CCOB(c3ccccc3)OCC2)=C(O)C2(O)C(O)=C3C(=O)C4C(O)=CC=CC4C(C)(O)C3CC12 (stereo not given) here?
**A.** 6 of 6

**Q.** Which survivor count (dose: 50.0 mg/kg/injection, schedule: Q01DX001 (ip), vehicle: saline with Tween-80) does the source give for O=c1c(Cl)c2cc3c(cc2c2ccccc12)nc1ccccc1n3-c1ccccc1 here?
**A.** 6 of 6

**Q.** What does the source list for FC(F)(F)c1cccc(-c2nc3nc(Cl)c(Cl)nc3[nH]2)c1?
**A.** T/C [3]: 129 % of control [5 of 6 alive]; survivor count (dose: 150.0 mg/kg/injection, schedule: Q01DX009 (ip), vehicle: saline with Tween-80): 1 of 6; survivor count [4]: 5 of 6; survivor count (dose: 300.0 mg/kg/injection, schedule: Q04DX003 (ip), vehicle: saline with Tween-80): 0 of 6

**Q.** What does the source list for N#Cc1cnc2nc(N)nc(N)c2c1?
**A.** survivor count (dose: 400.0 mg/kg/injection, schedule: Q01DX009 (ip), vehicle: saline): 1 of 6; survivor count (dose: 400.0 mg/kg/injection, schedule: Q04DX003 (ip), vehicle: saline): 4 of 6

**Q.** With O=C1NC(c2ccccc2Cl)Nc2ccccc21 (stereo not given) as the molecule, how does the T/C (dose: 400.0 mg/kg/injection, schedule: Q01DX009 (ip), vehicle: Klucel (hydroxypropylcellulose) (HPC)) read?
**A.** 135 % of control (2×)

**Q.** Which survivor count (dose: 200.0 mg/kg/injection, schedule: Q01DX009 (ip), vehicle: Klucel (hydroxypropylcellulose) (HPC)) does the source give for COC(=O)C1C(O)C(C)C(O)C(C)C=C(C)C2=C3C(=C(C)C(=O)c4c(O)c(c(C)c(OC(C)=O)c43)NC(=O)C(C)=C/C=C\C(C)C(O)C(C)C1O)OCO2 (stereo not given) here?
**A.** 1 of 6

**Q.** Which results are given for COC(COC(N)=O)C1=C(N2CC2)C(=O)C(C)=C(N2CC2)C1=O (stereo not given)?
**A.** T/C (dose: 0.06 mg/kg/injection, schedule: Q01DX009 (ip), vehicle: saline): 145 % of control; T/C (dose: 1.0 mg/kg/injection, schedule: Q01DX009 (ip), vehicle: saline): 133 % of control; survivor count (dose: 2.0 mg/kg/injection, schedule: Q01DX009 (ip), vehicle: saline): 6 of 6

**Q.** With CC1(C)N=C(N)N=C(N)N1c1cccc(CCCCc2ccc(S(=O)(=O)F)cc2Cl)c1 as the molecule, how does the T/C (dose: 6.25 mg/kg/injection, schedule: Q01DX009 (ip), vehicle: saline sonified) read?
**A.** 140 % of control

**Q.** What about the T/C (dose: 12.5 mg/kg/injection, schedule: Q01DX009 (ip), vehicle: saline sonified) of the same molecule?
**A.** 136 % of control

**Q.** CCCCOP(=S)(N1CC1)N1CC1 was tested. Which T/C (dose: 4.4 mg/kg/injection, schedule: Q01DX009 (ip), vehicle: saline with Tween-80) did it give?
**A.** 133 % of control

**Q.** What about the T/C (dose: 6.0 mg/kg/injection, schedule: Q04DX003 (ip), vehicle: saline with Tween-80) of the same molecule?
**A.** 128 % of control

**Q.** And the T/C (dose: 9.0 mg/kg/injection, schedule: Q04DX003 (ip), vehicle: saline with Tween-80)?
**A.** 128 % of control

**Q.** And the T/C (dose: 16.5 mg/kg/injection, schedule: Q01DX009 (ip), vehicle: saline with Tween-80)?
**A.** 148 % of control

**Q.** What about the T/C [1] of the same molecule?
**A.** 130 % of control

**Q.** What about the survivor count [2] of the same molecule?
**A.** 4 of 6

**Q.** And the survivor count [5]?
**A.** 0 of 6

**Q.** What about the survivor count [6] of the same molecule?
**A.** 4 of 6

**Q.** Oc1ccc(Nc2ccnc3cc(Cl)ccc23)cc1CN(CCCl)CCCl was tested. Which T/C (dose: 2.2 mg/kg/injection, schedule: Q04DX003 (ip), vehicle: saline) did it give?
**A.** 145 % of control

**Q.** And the T/C (dose: 5.0 mg/kg/injection, schedule: Q04DX003 (ip), vehicle: saline with Tween-80)?
**A.** 135 % of control

**Q.** What about the T/C (dose: 7.5 mg/kg/injection, schedule: Q04DX003 (ip), vehicle: saline) of the same molecule?
**A.** 127 % of control

**Q.** And the survivor count (dose: 10.0 mg/kg/injection, schedule: Q01DX009 (ip), vehicle: saline)?
**A.** 4 of 6

**Q.** And the survivor count (dose: 20.0 mg/kg/injection, schedule: Q04DX003 (ip), vehicle: saline with Tween-80)?
**A.** 4 of 6

**Q.** Which survivor count [5] does the source give for COc1cc([N+](=O)[O-])cc(C=O)c1OC(=O)c1ccccc1 here?
**A.** 5 of 6

**Q.** And the survivor count (dose: 400.0 mg/kg/injection, schedule: Q01DX009 (ip), vehicle: saline with Tween-80)?
**A.** 1 of 6

**Q.** Which results are given for CCOc1cc(C=Nc2cc(Cl)c(O)c(Cl)c2)ccc1N(CCCl)CCCl?
**A.** T/C (dose: 11.0 mg/kg/injection, schedule: Q04DX003 (ip), vehicle: saline with Tween-80): 129 % of control; survivor count [3]: 5 of 6; survivor count [4]: 0 of 6; survivor count [6]: 0 of 6
